# Measurements from PubChem BioAssay AID2685 (National Center for Advancing Translational Sciences (NCATS), 2010).
# Some of the results follow. The main result of the screen is listed elsewhere. These columns were measured beside it and carry no call. Most of these compounds were active or inconclusive in the main read-out, so they are no random draw. Potencies come from curve fits of mixed quality, noted in brackets.
# Assay: qHTS Assay for Lipid Storage Modulators in Drosophila S3 Cells;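 as to cell number change: cells counted by Cell Tracker Red CMTPX staining in the red channel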
# Details: BODIPY lipid droplet fluorescence, 18-24 h; for cell number change: measured here: cell count max response, cells fed with added oleic acid
# How it was run: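 Drosophila S3 cells got compounds at several concentrations plus oleic acid (400 uM solution). Laser-scanning cytometry with 488 nm excitation read lipid droplets at 500-530 nm and cells at 575-640 nm. Percent activity was relative to 20 uM Triacsin C.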
# [1] = measured here: cell number channel AC50, cells fed with added oleic acid
# [2] = measured here: lipid fluorescence (Fed channel) AC50, cells fed with added oleic acid
Compound,cell number change,AC50 [1],AC50 [2]
CCC1CCCCN1C(=O)COC(=O)CN(C)S(=O)(=O)c1ccc(NC(C)=O)cc1 (configuration not stated),-50%,"29100 nM [falling, single point]",
CC(=O)Cc1nsc(NC(=O)c2ccc(-c3ccc(Cl)cc3Cl)o2)n1,-9.6%,,"2060 nM [rising, single point]"
CCOc1ccc(CCNC(=O)CS(=O)Cc2nc(-c3ccc(C)cc3)oc2C)cc1 (configuration not stated),3.61%,,"1840 nM [falling, partial curve, poor fit]"
COC(=O)C1=CN(c2cccc(C)c2)C=C(C(=O)OC)C1c1cc(OC)c(O)c([N+](=O)[O-])c1,,,"1460 nM [falling, full curve]"
Cc1ccccc1-n1cc(CNC(=O)C2CCC(=O)N(C3CC3)C2)cn1 (configuration not stated),-10.4%,,"29100 nM [rising, single point]"
COc1ccc(C(=O)Nn2cnnc2)cc1OC,4.43%,,"82 nM [falling, full curve, poor fit]"
O=C(Nc1cnn(Cc2c(Cl)cccc2Cl)c1)C(c1ccccc1)c1ccccc1,0.233%,,"1300 nM [rising, full curve, poor fit]"
CCOc1ccc(N(CCCCO)C(=S)NC(=O)c2ccc(C)c(Br)c2)cc1,-49.7%,,
Cc1ccc(C(=O)N/N=C/c2ccc3c(c2)OCO3)o1,13.7%,,"29100 nM [falling, single point]"
Cn1ccnc1C(=O)c1ccc(S(=O)(=O)N2CCCC2)cc1,,"58 nM [falling, full curve, poor fit]","103 nM [falling, partial curve, poor fit]"
CCN(C(=O)COC(=O)/C=C/c1ccco1)c1c(N)n(Cc2ccccc2)c(=O)[nH]c1=O,2.85%,"259 nM [falling, single point]","7310 nM [falling, partial curve, poor fit]"
CC1CCc2sc(C(=O)OCC(=O)NC(C)C)cc2C1 (configuration not stated),-59.7%,"29100 nM [falling, single point]","29100 nM [falling, single point]"
Cc1cc(C(=O)COC(=O)c2csc3c2CCCC3)c(C)n1C,14.7%,,"3660 nM [rising, full curve, poor fit]"
CCC(=O)N1CN(S(=O)(=O)c2ccc(C)cc2)CC1C (configuration not stated),0.123%,,"5.8 nM [falling, full curve]"
O=C(CCNS(=O)(=O)c1cccc2nonc12)NCc1cccs1,-0.676%,,"2910 nM [rising, full curve]"
Cc1cc(=O)[nH]c(SCC(=O)/C=C2\N(C)c3ccccc3C2(C)C)n1,-10.2%,,"6510 nM [falling, single point]"
